For at least one entry, the source does not settle the construct or the ends of the probe.
Target: recombinant murine PD-L1 (mouse) (UniProt Q9EP73)
Experiment: binding assay
Settings: PBS, room temperature, 30 min, 2x10^5 CT26 cells in 250 uL, three PBS washes, flow cytometry; Y = Bmax X/(Kd + X), n = 2; recombinant protein; label: FAM (CT26 assays); single-stranded DNA

Protein sequences, listed by entry. Tags and fused reporters are not part of them. Residues count along the entry.
UniProt Q9EP73, 19-239: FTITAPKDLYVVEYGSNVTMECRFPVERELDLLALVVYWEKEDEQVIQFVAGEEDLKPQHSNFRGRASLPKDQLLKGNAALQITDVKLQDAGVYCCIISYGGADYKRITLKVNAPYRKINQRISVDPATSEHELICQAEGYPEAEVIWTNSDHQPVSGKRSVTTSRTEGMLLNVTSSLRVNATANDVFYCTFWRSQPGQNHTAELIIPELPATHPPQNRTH

Sequence: ACGGGCCACATCAACTCATTGATAGACAATGCGTCCACTGCCCGT [free PD-L1 aptamer (Apt)]
- Kd: 72 nM
